In doi:10.1101/2025.11.23.689998 one finds binding data, which are given here for two molecules.

The chains behind the UniProt entries cited, without tags or fusion partners.
UniProt Q9FIJ0: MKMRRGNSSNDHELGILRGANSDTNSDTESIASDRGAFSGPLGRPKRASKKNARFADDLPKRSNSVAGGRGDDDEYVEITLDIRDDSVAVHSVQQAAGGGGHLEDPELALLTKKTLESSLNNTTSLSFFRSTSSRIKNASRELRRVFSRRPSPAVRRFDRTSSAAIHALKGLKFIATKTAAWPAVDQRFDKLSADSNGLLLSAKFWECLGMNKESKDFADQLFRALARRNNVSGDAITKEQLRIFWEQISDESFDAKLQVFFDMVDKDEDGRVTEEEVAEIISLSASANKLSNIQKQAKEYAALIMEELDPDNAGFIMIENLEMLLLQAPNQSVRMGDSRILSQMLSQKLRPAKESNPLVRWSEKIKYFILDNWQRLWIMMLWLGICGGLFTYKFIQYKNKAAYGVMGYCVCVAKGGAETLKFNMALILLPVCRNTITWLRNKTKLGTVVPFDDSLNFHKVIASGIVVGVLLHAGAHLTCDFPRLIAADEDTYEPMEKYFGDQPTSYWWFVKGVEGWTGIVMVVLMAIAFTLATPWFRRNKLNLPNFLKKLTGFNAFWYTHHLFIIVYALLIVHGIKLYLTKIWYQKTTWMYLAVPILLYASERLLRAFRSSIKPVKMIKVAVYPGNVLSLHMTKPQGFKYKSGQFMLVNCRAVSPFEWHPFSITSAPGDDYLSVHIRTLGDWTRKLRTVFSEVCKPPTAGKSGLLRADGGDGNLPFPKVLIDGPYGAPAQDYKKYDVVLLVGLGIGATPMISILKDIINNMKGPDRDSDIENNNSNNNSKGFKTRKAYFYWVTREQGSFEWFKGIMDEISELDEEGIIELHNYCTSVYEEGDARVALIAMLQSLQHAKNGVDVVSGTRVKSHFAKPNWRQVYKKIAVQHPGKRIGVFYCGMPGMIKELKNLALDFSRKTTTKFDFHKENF
UniProt P14713: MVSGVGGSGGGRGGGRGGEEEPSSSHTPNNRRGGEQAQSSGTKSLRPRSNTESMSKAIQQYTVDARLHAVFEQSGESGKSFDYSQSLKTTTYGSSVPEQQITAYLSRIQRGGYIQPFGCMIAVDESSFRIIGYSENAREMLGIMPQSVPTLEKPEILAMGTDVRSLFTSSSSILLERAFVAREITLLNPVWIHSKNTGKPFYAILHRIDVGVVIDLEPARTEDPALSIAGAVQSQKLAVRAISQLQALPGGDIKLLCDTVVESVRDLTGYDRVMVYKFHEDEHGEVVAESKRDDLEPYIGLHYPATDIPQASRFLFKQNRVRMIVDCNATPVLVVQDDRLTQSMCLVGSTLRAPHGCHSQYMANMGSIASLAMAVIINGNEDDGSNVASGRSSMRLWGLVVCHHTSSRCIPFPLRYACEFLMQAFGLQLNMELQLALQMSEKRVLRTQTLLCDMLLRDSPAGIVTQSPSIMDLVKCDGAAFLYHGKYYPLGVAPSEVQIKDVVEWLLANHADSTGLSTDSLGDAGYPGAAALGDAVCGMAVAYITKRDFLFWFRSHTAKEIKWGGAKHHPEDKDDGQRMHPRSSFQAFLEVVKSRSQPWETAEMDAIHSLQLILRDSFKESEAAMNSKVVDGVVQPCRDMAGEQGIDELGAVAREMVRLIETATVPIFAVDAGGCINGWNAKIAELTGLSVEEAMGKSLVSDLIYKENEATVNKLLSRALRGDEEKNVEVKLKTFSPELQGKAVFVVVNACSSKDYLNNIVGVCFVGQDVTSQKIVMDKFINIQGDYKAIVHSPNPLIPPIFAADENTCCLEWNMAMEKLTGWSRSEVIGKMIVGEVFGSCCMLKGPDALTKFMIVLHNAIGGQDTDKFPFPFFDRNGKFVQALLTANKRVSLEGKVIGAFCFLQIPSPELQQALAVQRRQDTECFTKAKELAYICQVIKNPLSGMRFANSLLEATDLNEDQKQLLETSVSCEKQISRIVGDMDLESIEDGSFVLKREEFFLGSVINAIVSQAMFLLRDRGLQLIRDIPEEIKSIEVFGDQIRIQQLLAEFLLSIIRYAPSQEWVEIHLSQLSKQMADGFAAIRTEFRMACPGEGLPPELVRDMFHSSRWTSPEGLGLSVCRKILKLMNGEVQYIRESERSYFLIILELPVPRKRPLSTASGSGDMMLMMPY

Results are given in words; binding and its absence hold for the method and conditions named. Binding seen in cells or lysates may run through a third protein. A yes stands for co-enrichment or nearness to the bait. Other partners may have been found.

The target of assay [1] is HA-tagged RBOHD (RESPIRATORY BURST OXIDASE PROTEIN D) (Arabidopsis thaliana) (UniProt Q9FIJ0). Briefly: affinity purification with mass spectrometry.
Assay [2] concerns the target phyB-miniTurbo (phyB CDS - miniTurbo-sCFP3A-3FLAG) (Arabidopsis thaliana) (UniProt P14713). Briefly: proximity labelling.

B1: CYSTEINE-RICH RECEPTOR LIKE KINASE 10 (receptor, UniProt Q8GYA4 35-669)
chain: QDPTYVYHTCQNTANYTSNSTYNNNLKTLLASLSSRNASYSTGFQNATVGQAPDRVTGLFNCRGDVSTEVCRRCVSFAVNDTLTRCPNQKEATLYYDECVLRYSNQNILSTLITTGGVILVNTRNVTSNQLDLLSDLVLPTLNQAATVALNSSKKFGTRKNNFTALQSFYGLVQCTPDLTRQDCSRCLQLVINQIPTDRIGARIINPSCTSRYEIYAFYTESAVPPPPPPPSISTPPVSAPPRSGKDGNSKVLVIAIVVPIIVAVLLFIAGYCFLTRRARKSYYTPSAFAGDDITTADSLQLDYRTIQTATDDFVESNKIGQGGFGEVYKGTLSDGTEVAVKRLSKSSGQGEVEFKNEVVLVAKLQHRNLVRLLGFCLDGEERVLVYEYVPNKSLDYFLFDPAKKGQLDWTRRYKIIGGVARGILYLHQDSRLTIIHRDLKASNILLDADMNPKIADFGMARIFGLDQTEENTSRIVGTYGYMSPEYAMHGQYSMKSDVYSFGVLVLEIISGKKNSSFYQTDGAHDLVSYAWGLWSNGRPLELVDPAIVENCQRNEVVRCVHIGLLCVQEDPAERPTLSTIVLMLTSNTVTLPVPRQPGLFFQSRIGKDPLDTDTTSKSLLGSVDDASITDIHPR
As to B1, the binding entry in assay [1] and in assay [2] was “binds” throughout.

B2: LEUCINE-RICH REPEAT (LRR) like receptor At3g14840 (receptor, UniProt C0LGN2 27-1020)
chain: ATLPKEEVDALQSVATALKKSNWNFSVDPCDETLSEGGWRNPNAAKGFEDAVTCNCSSVICHVTNIVLKAQDLQGSLPTDLSGLPFLQELDLTRNYLNGSIPPEWGASSLLNISLLGNRISGSIPKELGNLTTLSGLVLEYNQLSGKIPPELGNLPNLKRLLLSSNNLSGEIPSTFAKLTTLTDLRISDNQFTGAIPDFIQNWKGLEKLVIQASGLVGPIPSAIGLLGTLTDLRITDLSGPESPFPPLRNMTSMKYLILRNCNLTGDLPAYLGQNRKLKNLDLSFNKLSGPIPATYSGLSDVDFIYFTSNMLNGQVPSWMVDQGDTIDITYNNFSKDKTEECQQKSVNTFSSTSPLVANNSSNVSCLSKYTCPKTFYGLHINCGGNEITSNETKYDADTWDTPGYYDSKNGWVSSNTGNFLDDDRTNNGKSKWSNSSELKITNSSIDFRLYTQARLSAISLTYQALCLGKGNYTVNLHFAEIMFNEKNMYSNLGRRYFDIYVQGKREVKDFNIVDEAKGVGKAVVKKFPVMVTNGKLEIRLQWAGKGTQAIPVRGVYGPLISAVSVDPDFIPPKEPGTGTGGGSSVGTVVGSVIASTVFLVLLIGGILWWRGCLRPKSQMEKDFKNLDFQISSFSLRQIKVATDNFDPANKIGEGGFGPVHKGIMTDGTVIAVKQLSAKSKQGNREFLNEIAMISALQHPHLVKLYGCCVEGDQLLLVYEYLENNSLARALFGPQETQIPLNWPMRQKICVGIARGLAYLHEESRLKIVHRDIKATNVLLDKELNPKISDFGLAKLDEEENTHISTRVAGTYGYMAPEYAMRGHLTDKADVYSFGVVALEIVHGKSNTSSRSKADTFYLLDWVHVLREQNTLLEVVDPRLGTDYNKQEALMMIQIGMLCTSPAPGDRPSMSTVVSMLEGHSTVNVEKLLEASVNNEKDEESVRAMKRHYATIGEEEITNTTTTDGPFTSSSTSTANANDLYPVKLDSAYWNTRT
As for B2, the binding entry in assay [1] is “binds”.
